This note sets out measurements from the supplement of paper PMC12578635.

This is one part of the list. Cut-off read from the data, not from the text of the source: active = 150% or more and inactive = the rest. Single values are uncertain, as repeats are few or missing.

In the assay the test system is Staphylococcus aureus JE2-lux inside RAW 264.7 macrophages. The experiment in a line: intracellular bacterial bioluminescence relative to DMSO vehicle; higher = higher intracellular bacterial metabolic activity. As to conditions: 10 µM; treatment time 4 h; gentamicin 50 µg/ml.
For the compound `CC1=C(C(N)=O)C(c2ccccc2)n2nc(-c3ccc(O)cc3)nc2N1` (stereo not drawn), the intracellular bacterial bioluminescence was inactive: 114%.

As to `O=C(NCCCc1nc2cc3ccccc3cc2[nH]1)c1ccc2nccnc2c1`, the intracellular bacterial bioluminescence was inactive: 119%.

Turning to `NC(=O)c1cc2cc(Br)ccc2o/c1=N\c1ccc(Oc2ccccc2)cc1`, the intracellular bacterial bioluminescence was inactive: 117%.

As for `O=c1c2nnn(Cc3ccccc3F)c2ncn1Cc1cccc([N+](=O)[O-])c1`, the intracellular bacterial bioluminescence is inactive: 90.8%.

On to `CCc1nnc(NC(=O)CSc2ncnc3c(-c4ccc(C)cc4)nsc23)s1`, for which the intracellular bacterial bioluminescence was inactive: 108%.

On to `Clc1ccc(C(CNc2nn3cnnc3c3ccccc23)N2CCCCC2)cc1` (stereo not drawn), for which the intracellular bacterial bioluminescence was inactive: 77.5%.

Turning to `N#C/C(C(=O)c1ccc2c(c1)OCCO2)=C1/Nc2ccccc2S1`, the intracellular bacterial bioluminescence is inactive: 80.8%.

For the compound `COc1cc(OC)cc(C(=O)NCC(=O)N/N=C/c2ccccc2OC)c1`, the intracellular bacterial bioluminescence was inactive: 98.7%.

`O=C(NNc1nc2c(F)cccc2s1)c1cc(-c2cccs2)nc2ccccc12`: the intracellular bacterial bioluminescence is inactive: 112%.

Consider `O=C1NC(=O)c2cc(NC(=O)c3cccc4ccccc34)ccc21`, for which the intracellular bacterial bioluminescence is inactive: 118%.

Consider `O=C(NCCc1ccccc1)c1cnc2c(F)cccc2c1O`, for which the intracellular bacterial bioluminescence was inactive: 97.5%.

For the compound `CCc1ccccc1NC(=O)c1sc2nc3c(c(-c4cccs4)c2c1N)CCC3`, the intracellular bacterial bioluminescence was inactive: 103%.

In the case of `Cc1nn(-c2nc3ccccc3n2C)c2c1C(c1ccsc1)CC(=O)N2` (stereo not drawn), the intracellular bacterial bioluminescence was inactive: 56.2%.

On to `CC1=CC2=NC(=O)CC(C)(C(=O)Nc3cccc(-c4csnn4)c3)N2C=C1` (stereo not drawn), for which the intracellular bacterial bioluminescence is inactive: 102%.

As for `COc1cc(C(=O)N/N=C/c2ccc(Br)o2)cc(OC)c1OC`, the intracellular bacterial bioluminescence was inactive: 63.1%.

On to `Cc1cccc(C)c1NC(=O)N1CCC(C(=O)c2ccc(F)cc2)CC1`, for which the intracellular bacterial bioluminescence was inactive: 127%.

On to `COc1ccccc1N1CCN(CCCNC(=O)c2c(-c3ccccc3)nnc3ccccc23)CC1`, for which the intracellular bacterial bioluminescence was inactive: 79.4%.

Take `c1cnc(-c2nc(-c3ccc(N4CCCCC4)cc3)no2)cn1`: the intracellular bacterial bioluminescence was inactive: 117%.

`N#Cc1ccccc1NC(=O)/N=c1\c2ccccc2[nH]c(=O)n1CCc1ccccc1`: the intracellular bacterial bioluminescence was inactive: 123%.

As to `Cc1cccc(-c2noc(CCn3c(=O)[nH]c4ccccc4c3=O)n2)c1`, the intracellular bacterial bioluminescence was inactive: 73.2%.

For `CNC(=O)Cn1cc(OC)c(=O)cc1CSc1nnc(C)s1`, the intracellular bacterial bioluminescence is inactive: 124%.

Take `Cc1ccc2nc(-c3ccc(O)c(O)c3)c(NC3CCCC3)n2c1`: the intracellular bacterial bioluminescence is inactive: 108%.

In the case of `Cc1nc2ccn(Cc3ccccc3)c(=O)c2cc1C(=O)NCCC1=CCCCC1`, the intracellular bacterial bioluminescence is inactive: 62.6%.

Consider `O=C(NCc1ccccn1)c1ccc2c(=O)n(Cc3ccccc3Cl)c(=S)[nH]c2c1`, for which the intracellular bacterial bioluminescence is inactive: 99%.

Consider `Cc1nnc2sc(SCC(=O)Nc3nccs3)nn2c1=O`, for which the intracellular bacterial bioluminescence is inactive: 109%.

For `O=C1NC(=O)/C(=C\c2ccc(-c3cccc(Cl)c3Cl)o2)S1`, the intracellular bacterial bioluminescence is inactive: 97.2%.

In the case of `Cc1cc(OC(=O)C(c2ccccc2)c2ccccc2)c([N+](=O)[O-])c(=O)[nH]1`, the intracellular bacterial bioluminescence is inactive: 111%.

For `O=C1N/C(=N/c2ccc(F)cc2)S/C1=C\c1ccc(F)cc1`, the intracellular bacterial bioluminescence was inactive: 94.8%.

On to `CCc1nc(SCc2cccnc2)c2c(=O)n(C)c(=O)n(C)c2n1`, for which the intracellular bacterial bioluminescence is inactive: 57.3%.

For the compound `CCC(Sc1nc2ncccc2o1)C(=O)N1CCOc2ccc(C)cc21` (stereo not drawn), the intracellular bacterial bioluminescence is inactive: 108%.

Consider `CC(C)c1nc2ccccc2c2nnc(SCC(=O)NCc3ccccc3)n12`, for which the intracellular bacterial bioluminescence is inactive: 81.3%.

Regarding `O=C(c1cc(F)cc(F)c1)N1CCc2nc(N3CCCC3)[nH]c(=O)c2C1`, the intracellular bacterial bioluminescence is inactive: 115%.

Regarding `CCOc1ccc2nc(-n3nc(C)c4c3NC(=O)CC4c3cnn(CC)c3)sc2c1` (stereo not drawn), the intracellular bacterial bioluminescence is inactive: 79.3%.

With `Cc1sc2nc(SCC(=O)Nc3c[nH]c(=O)[nH]c3=O)[nH]c(=O)c2c1C`, the intracellular bacterial bioluminescence was inactive: 117%.

For `O=c1[nH]c2ccccc2nc1/C=C/c1ccc(Cl)cc1Cl`, the intracellular bacterial bioluminescence was inactive: 83.1%.

For `O=C(CCN1C(=O)/C(=C/c2ccc(Cl)cc2Cl)SC1=S)Nc1cccnc1`, the intracellular bacterial bioluminescence is inactive: 94.4%.

As for `CCOC(=O)c1cc(-c2ccccn2)c(N2CCOCC2)s1`, the intracellular bacterial bioluminescence was inactive: 95.9%.

Regarding `Cn1c(SCC(=O)NCC2CCCO2)ncc(C(=O)Nc2ccccc2)c1=O` (stereo not drawn), the intracellular bacterial bioluminescence is inactive: 35.7%.

As to `Cc1c(NC(=O)c2ncoc2-c2ccc(F)cc2)c(=O)n(-c2ccccc2)n1C`, the intracellular bacterial bioluminescence was inactive: 101%.

With `Cc1ccc(-c2ocnc2C(=O)N2CCN(c3ncccn3)CC2)cc1`, the intracellular bacterial bioluminescence is inactive: 112%.

Consider `O=C(CCCS(=O)(=O)c1ccccc1)Nc1nc2c(Cl)ccc(Cl)c2s1`, for which the intracellular bacterial bioluminescence is active: 192%.

For `Cc1cc(NC2CCCCC2)n2c(nc3ccccc32)c1C#N`, the intracellular bacterial bioluminescence is inactive: 137%.

Regarding `Cc1cc(C)c(NC(=O)c2sc3nc4c(cc3c2N)C(=O)CC(C)(C)C4)c(C)c1`, the intracellular bacterial bioluminescence was inactive: 95.3%.

As to `O=C(NCc1ccccc1)c1nn(-c2ccccc2)c2nc[nH]c(=O)c12`, the intracellular bacterial bioluminescence was inactive: 92.4%.

With `O=C1C=C/C(=N/Nc2ccc3c(c2)OCO3)c2cccnc21`, the intracellular bacterial bioluminescence is inactive: 60%.

Consider `O=CC1CSc2[nH]c(=O)sc2C1c1ccc(OCc2ccccc2)cc1` (stereo not drawn), for which the intracellular bacterial bioluminescence is inactive: 29.6%.

For the compound `CCOc1cccc2c1Oc1nc(-c3ccc(OC)c(OC)c3)[nH]c(=O)c1C2`, the intracellular bacterial bioluminescence is inactive: 108%.

As to `Cc1nc2ccccc2c2nn(CC(=O)NC3CCCC3)c(=O)n12`, the intracellular bacterial bioluminescence is inactive: 96%.

`O=C(CSCc1nc(O)c2nnn(Cc3ccc(F)cc3)c2n1)Nc1cccc2ccccc12`: the intracellular bacterial bioluminescence is inactive: 99.2%.

In the case of `Cc1ccc(Cl)cc1N1CCN(C(=O)c2cnc(N3CCCCC3)c3ccccc23)CC1`, the intracellular bacterial bioluminescence was inactive: 108%.

As for `O=C(Cn1cnc2c(cnn2-c2ccc(F)cc2)c1=O)Nc1cccc([N+](=O)[O-])c1`, the intracellular bacterial bioluminescence is inactive: 95.9%.

On to `CCOC(=O)C(=O)NCC(c1ccco1)S(=O)(=O)c1ccccc1` (stereo not drawn), for which the intracellular bacterial bioluminescence was inactive: 98.5%.

As for `COC(=O)c1cc(N/N=C2\C=CC(=O)c3ccccc32)cc(C(=O)OC)c1`, the intracellular bacterial bioluminescence was inactive: 88.2%.

`Cc1cc(N(C)C)nc(N2CCN(C(=O)c3ccc(F)cc3)CC2)n1`: the intracellular bacterial bioluminescence is inactive: 84.5%.

`O=C(Cn1nc(C(F)(F)F)c2cccn2c1=O)NC1CCCC1`: the intracellular bacterial bioluminescence was inactive: 91.4%.

Consider `O=C(NCc1cccnc1)C(=O)Nc1cc2c3c(c1)CCC(=O)N3CCC2`, for which the intracellular bacterial bioluminescence is inactive: 102%.

`O=C(CCCN1C(=O)S/C(=C/c2ccccc2)C1=S)Nc1ccc(C(=O)O)cc1`: the intracellular bacterial bioluminescence was inactive: 119%.

As for `Cc1cccc(-c2nc3scc(CCNC(=O)c4ccc5c(c4)OCO5)n3n2)c1`, the intracellular bacterial bioluminescence is inactive: 94.2%.
